Assay results: the supplement of paper PMC8846439
This is one part of the list. Most values come without repeats; read them as rough.

Test system: Trypanosoma brucei brucei bloodstream form L262P (kDNA-independent)
Experiment: viability Z-score (nuclei count per well, median-polish normalised, relative to plate distribution); higher = more viable parasites (negative = growth inhibition)
Conditions: 4 days; compound concentration: 10 µM (some Prestwick/PKE rows may be 1 µM / not distinguished)

Structure (SMILES)	viability Z-score
C=1/2\C(=C/C(\C(=C/C1)\SC)=O)\[C@@H](NC(=O)C)CCc1c2c(c(c(O[C@H]2[C@@H]([C@H]([C@@H]([C@H](O2)CO)O)O)O)c1)OC)OC [Thiocolchicoside]	-1.78
O=[S](=O)(NCC(=O)O)C1=CC=C(/C=C1/[I])[N+]([O-])=O	-2.14
COc1ccc(C=C(NC(=O)c2ccccc2)C(=O)N/N=C2/C(=O)N(CC(=O)O)c3ccccc32)cc1OC	-5.62
Nc1nc2[nH]c(C(F)(F)F)nc2c(=O)[nH]1	-2.71
Cc1cc(C)c(S(=O)(=O)NC[C@H]2CC[C@H](C(=O)NCCN3CCOCC3)CC2)c(C)c1	-3.46
O=C(N/C1=C/C=C(C=C1)OCC)C[S]/C2=N/N=C(N2CC=C)C34CC5([H])C[C@@]([H])(C3)CC([H])(C4)C5	-2.05
N#C/C1=C/C=C(/NC(=O)C[S]CC(=O)O)C=C1	-3.24
CCN(CC)c1ccc(/C=N/NC(=O)CSc2nnc(SCc3ccccc3)s2)c(O)c1	-4.54
N#C/C2=C/C=C(/NC(=O)N/C1=C/C=C(/C#N)C=C1)C=C2	-2.01
CC1(C)S[C@@H]2[C@H](NC(=O)[C@H](N)c3ccc(O)cc3)C(=O)N2[C@H]1C(=O)O [Amoxicillin]	-2.66
CN(C)N=Nc1[nH]cnc1C(N)=O [Dacarbazine]	-3.46
CCCc1ccc(C(=O)N2CCC(n3c(=O)oc4ccccc43)CC2)o1	-3.09
CC1=C(C(=O)OCc2ccccc2)[C@@H](c2ccccc2Br)CC(=O)N1	-1.72
N#C/C2=C(\N)OC=1N/N=C(/C)C=1[C@]24C(=O)N(CC/C3=C/C=CC=C3)C=5C=CC=CC4=5	-3.45
N#C/C1=C(/NC(C)=C(C(=O)C)[C@]1([H])C2=CC=CC=C2)[S]CC(=O)C3=CC([Br])=CC=C3	-2.41
O=C(N[C@@]([H])(C2=N/N=C(/[S]CC(=O)NCC/C1=C/C=CC=C1)N2C)C(C)(C)[H])C3=CC(C)=CC=C3	-2.3
Nc1nc2c(c(C(F)(F)F)n1)CCc1ccccc1-2	-3.23
O=C(OC)[C@]1(NC(O1)=N/C2=C/C=C(/[F])C=C2)C([F])([F])[F]	-1.32

Structure (SMILES)	viability Z-score
CC1(C)S[C@@H]2[C@H](NC(=O)Cc3ccccc3)C(=O)N2[C@H]1C(=O)[O-] [Benzylpenicillin sodium]	-1.84
O=C1NC(=O)C(=CN1/C2=C/C=C(/[Cl])C=C2)C#N	-2.82
CC(C)(Sc1cc(C(C)(C)C)c(O)c(C(C)(C)C)c1)Sc1cc(C(C)(C)C)c(O)c(C(C)(C)C)c1 [Probucol]	-4.01
CN(CCN(C)C)C1=NC(=NC=2CCN(CC1=2)C/C3=C/C=CC=C3)N4CCCC4	-3.98
CC=1N(/N=C(/C)C=1[Br])C/C3=N/N=C(/[S]CC=2C=CC=CC=2[Cl])N3C	-2.33
[C@@]12([C@@]([C@]3([C@@](C[C@@H]1O)(OC3)[H])OC(=O)C)([C@@H]([C@]1(C(\C(\[C@H](C2=O)OC(=O)C)=C(/[C@H](C1)OC([C@@H]([C@@H](NC(=O)c1ccccc1)c1ccccc1)O)=O)\C)(C)C)O)OC(=O)c1ccccc1)[H])C [Paclitaxel]	-4.63
O=C(NC(C)(C)C1=CC(=CC=C1)C(=C)C)N/C2=C/C=C(C=C2)C(=O)N	-4.87
CC(C)(C)c1ccc(C(O)CCCN2CCC(C(O)(c3ccccc3)c3ccccc3)CC2)cc1 (stereo not given) [Terfenadine]	-2.41
N[C@H](C(=O)O)[C@@H]1CC(Cl)=NO1 [Acivicin]	-1.9
O=C1NC(=NC(O)=C1NC(=O)C)[S]CC(=O)N([C@@]2([H])CCCCC2)[C@@]3([H])CCCCC3	-1.1
[F]C([F])([F])[C@](O)([H])CNC/C1=C/C=C(C=C1)C=2[S]C=CC=2	-2.09
COc1ccc2ccccc2c1/C=C(/C#N)C(=O)NC1CCCCC1	-5.47
CSc1sc(C(=O)Nc2cccc(C(F)(F)F)c2)cc1C#N	-2.83
[O-][N+](=O)C2=C/C=C(/C[S]C=1NC(=NN=1)CC)C=C2	-6.22
NC(=S)NN1[C@@H]2CS[C@H]1CS2	-5.64
O=C(N/C1=C/C=CC2=N[S]N=C12)C4=CC=3OCOC=3C=C4	-4.37
C[C@]12CC[C@@H]3c4ccc(O)cc4C[C@@H](CCCCCCCCCS(=O)CCCC(F)(F)C(F)(F)F)[C@H]3[C@@H]1CC[C@@H]2O (stereo not given in full) [Fulvestrant]	-7.41

Two entries from above, with each value named.
CC=1N(/N=C(/C)C=1[Br])C/C3=N/N=C(/[S]CC=2C=CC=CC=2[Cl])N3C
  viability Z-score: -2.33
CC(C)(C)c1ccc(C(O)CCCN2CCC(C(O)(c3ccccc3)c3ccccc3)CC2)cc1 (stereo not given) [Terfenadine]
  viability Z-score: -2.41
